In PubChem BioAssay AID1508600 (Functional Genomics Laboratory (NCATS/FGL), 2020):
The campaign covered roughly 53,000 sequences. About 3,700 (7%) were called active.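 The calls were made as follows: active = gene knockdowns whose robust z-score for IL-1 alpha signal is at least 2 or at most -2, so actives lie on both sides; inactive = the rest.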 The list shows a part of the results.

assay: Components of the Cytosolic LPS Sensing Pathway: Gene Identification via Genome-wide siRNA Screen; conditions: RAW264.7 macrophages, IL-1a HTRF, actives lie on both sides, screened at 100 nM (by protocol), cells primed 5 h with Pam3CSK4 first;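 also: robust z of the log signal after scaling to non-targeting control siRNA wells of the plate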
Procedure, shortened: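 RAW264.7 mouse macrophages reverse-transfected with single siRNAs (100 nM final) for 48h, primed with Pam3CSK4 for 5 hours, then transfected with LipidA for 24 hour. Supernatant IL-1a read by HTRF; values normalized to negative-control median, log-transformed robust z-scores.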

Q: Which z-score does the source give for GGAAGAUGGAGAUCAGACGTT against Foxd4 here?
A: inactive: -0.498

Q: Which z-score does the source give for GGGAAACAUCCUCAGGGAUTT against Dcaf8 here?
A: inactive: 0.374

Q: With GGAACGAGACUCAUCUUCUTT against Cic as the sequence, how does the z-score read?
A: inactive: 0.786

Q: For CGGAUCCUACGGAAUUACGTT against Fpgs, which z-score is on record?
A: inactive: 0.99

Q: For CCUUUUGUUUUACCUACUCTT against Tbx22, which z-score is on record?
A: active: 2.32

Q: For GGAGAUUAAGAUUCAGCAGTT against Nmt2, which z-score is on record?
A: inactive: -1.69

Q: Which z-score does the source give for GGGUCGAUCAUUGUGGUCATT against Olfr508 here?
A: inactive: -0.826

Q: With GCAUUGACAAUACGACCAGTT against Sgo1 as the sequence, how does the z-score read?
A: inactive: -1.8

Q: With GGUCUGGAUCAGAAGUCAATT against Hrh1 as the sequence, how does the z-score read?
A: inactive: 1.76

Q: For GCUUUAAGGCCGUCAUCCATT against Gale, which z-score is on record?
A: inactive: -0.229

Q: Which z-score does the source give for UCAGUCAUGCCUUGAGGCUTT against Rragb here?
A: inactive: 0.162

Q: Which z-score does the source give for CCGGAGCACCAUUAAGGUUTT against Nudt11 here?
A: active: 4.75

Q: With CCCAACAUUUUCUAUGUGATT against Castor1 as the sequence, how does the z-score read?
A: inactive: 0.11

Q: Which z-score does the source give for GCGAAGGUCCCAAAGAUGATT against Cnst here?
A: inactive: 1.35

Q: With CCUGAGCUUUGAUGUCGAUTT against Arg1 as the sequence, how does the z-score read?
A: inactive: -0.435

Q: For GGGUUUCUGUUUGAUUCCATT against Gria1, which z-score is on record?
A: inactive: -0.747

Q: For GGGACACCUGGAAUUAAGATT against Spata16, which z-score is on record?
A: inactive: -0.79

Q: With GGCGAAUGGGAUUUCUAUUTT against Ttll9 as the sequence, how does the z-score read?
A: inactive: -0.133

Q: For CCCUUGAGUCAAAUGUCACTT against Lypd10, which z-score is on record?
A: inactive: 0.13

Q: For GCAGAAGUUAAGAUGCAUATT against Usf1, which z-score is on record?
A: active: 2.02

Q: For CGAUGUUGUAAAUAAUGCATT against Pdia4, which z-score is on record?
A: inactive: 1.6

Q: Which z-score does the source give for GGCCUUAGCAAAUAUGGCUTT against Nutf2 here?
A: inactive: 1.04

Q: For GGACUUCAUGGGUCGCUUUTT against Gstm2, which z-score is on record?
A: inactive: -0.185

Q: With GGAGAUUUGAGUCCUCUAGTT against Zfp438 as the sequence, how does the z-score read?
A: inactive: -0.719

Q: With GGCUCUCUGGCUUACUAAGTT against Mrpl37 as the sequence, how does the z-score read?
A: inactive: 1.09

Q: For GGUUGACGACUUUGUGUGUTT against Olfr90, which z-score is on record?
A: inactive: 0.318

Q: Which z-score does the source give for GGAUGAGUAUGAGAGGAAUTT against Dcp1a here?
A: active: 2.51

Q: With CCGUUAAUGCCAUGAUCAATT against Olfr1364 as the sequence, how does the z-score read?
A: inactive: 0.44

Q: For GGAAAAGCCUACUUCAAAATT against Efcab7, which z-score is on record?
A: inactive: 0.9

Q: For GGAAGUGUAUUCAAGAAGUTT against Tapt1, which z-score is on record?
A: active: 3.02

Q: Which z-score does the source give for GCUAAACUUAAGUCCAUCATT against Supt7l here?
A: inactive: -0.592

Q: For CGUUGUCAAAAGGACCCAUTT against Pvr, which z-score is on record?
A: inactive: -0.766

Q: Which z-score does the source give for CCCUAGAGAUGGUGGGUCUTT against Olfr934 here?
A: inactive: -0.484

Q: With GCAAGGACCAAAUUACAUATT against Itgb3bp as the sequence, how does the z-score read?
A: active: 2.45

Q: With CCAACGGCAAUGGUUGCAUTT against Thoc3 as the sequence, how does the z-score read?
A: inactive: -0.117

Q: For GGCGCAUGUGCGGAAGAAATT against Tbc1d17, which z-score is on record?
A: inactive: 0.785

Q: For GGCUCUUCACUCAUGUAUGTT against Olfr703, which z-score is on record?
A: inactive: -0.931

Q: For GCCGGAGACUAUCUGGUAGTT against Hps3, which z-score is on record?
A: inactive: 1.26

Q: For CCAGUCAUUGUGCUUGUUATT against Sox12, which z-score is on record?
A: inactive: 0.929

Q: With GGAUAGCCUGGAACUUAUCTT against Tnni3k as the sequence, how does the z-score read?
A: inactive: 0.239

Q: With GCGAAUUCGAGAAAACCUGTT against Celsr1 as the sequence, how does the z-score read?
A: inactive: 0.587

Q: Which z-score does the source give for CGAAAAUAUGGAUACUACUTT against Ippk here?
A: inactive: 0.732

Q: For GGAAAGAAACAAAGAAUGATT against Tmem154, which z-score is on record?
A: inactive: 1.12

Q: Which z-score does the source give for GGGAAAAGUGGUAAAUUAUTT against Shprh here?
A: inactive: 0.194

Q: For GCUCAGUUCUGUCACUUGCTT against Rs1, which z-score is on record?
A: inactive: -0.607

Q: Which z-score does the source give for GCCGAGAAUGCUGAGUUCATT against Hmox1 here?
A: inactive: 0.0106

Q: Which z-score does the source give for CGAGUCAUUACCAAUUACUTT against F13a1 here?
A: inactive: 0.634

Q: For GCACUUUGUAUAUCUUUCCTT against Btd, which z-score is on record?
A: inactive: 1.51

Q: For GACAAAGCCUAGAAUCAAUTT against Olfr402, which z-score is on record?
A: inactive: -0.946

Q: Which z-score does the source give for GGCUAUUUUGGCUUGUAAATT against Jam2 here?
A: inactive: -0.504

Q: Which z-score does the source give for GGAAGAAGAUGAAGACAUUTT against Trp53inp1 here?
A: inactive: 0.976

Q: For GGAAAACCGAGAAAAAAUGTT against Xpa, which z-score is on record?
A: inactive: 0.0658

Q: With GUGAACUCUUAUCGAUUACTT against Vmn1r46 as the sequence, how does the z-score read?
A: inactive: -0.886

Q: Which z-score does the source give for GGUGGAUUGACUAUGGCAATT against Kdm4d here?
A: inactive: 1.65

Q: For CCAGCAGAUAUUCUUACGGTT against Grb2, which z-score is on record?
A: inactive: 1.19

Q: Which z-score does the source give for CGUGAAGCAAGCCUUACCCTT against Pqlc3 here?
A: inactive: -0.0951

Q: Which z-score does the source give for GGAUGUGGAAGAGUUAAUUTT against Pakap here?
A: inactive: -0.62

Q: With CCGAGCACUCACUGUUUUATT against Ryr3 as the sequence, how does the z-score read?
A: inactive: 0.627

Q: For CGAAAUACCGAUGACUGGGTT against Zfp689, which z-score is on record?
A: inactive: -0.417

Q: For CGGCGACACCAUAAUUUGGTT against Il1r1, which z-score is on record?
A: inactive: -0.0723

Q: With CCCAAAGCUAUCAUAUCAATT against Aff4 as the sequence, how does the z-score read?
A: inactive: 0.508

Q: Which z-score does the source give for CGGUAUCAAGUGGUACUACTT against Angpt2 here?
A: inactive: 1.55

Q: For GGCUAGCAGUUCAGUGGAATT against Pex11a, which z-score is on record?
A: inactive: 1.06

Q: Which z-score does the source give for GGAAACUGGUGCUACAUUATT against Usp10 here?
A: inactive: 0.747

Q: For “GGUAUAAGAAGAGAAUCCUTT against 1700128F08Rik”, which z-score is on record?
A: inactive: -0.0096

Q: For CGCAGAACCCUGGUUUCUATT against Trappc11, which z-score is on record?
A: inactive: -0.232

Q: Which z-score does the source give for GGAUGAAAAGGGACAAAGATT against Wrap53 here?
A: inactive: -0.629

Q: Which z-score does the source give for CCUACUUGGACAUGAACCGTT against Vps18 here?
A: inactive: 0.126

Q: Which z-score does the source give for “AUCUGUUCCGGAGGAAUUUTT against 1700029I15Rik” here?
A: active: 3.85

Q: For GGAGUGUAUAUUAUUGGUGTT against Olfr44, which z-score is on record?
A: inactive: 0.621

Q: For CGAUCAAAAGGAUUUCAUCTT against Gjb4, which z-score is on record?
A: inactive: 0.319

Q: With GCGACCUUUAGUACACGUCTT against Cmtm1 as the sequence, how does the z-score read?
A: inactive: 1.89

Q: With GGCAUUUUGGAACCUAUAATT against Tspan1 as the sequence, how does the z-score read?
A: inactive: 0.538

Q: With CCGUGAGAUAACUAUAGCUTT against Tsg-5 as the sequence, how does the z-score read?
A: inactive: 0.368

Q: For GGAAAAUUCCUGUGAAUGATT against Bcor, which z-score is on record?
A: inactive: 0.812

Q: For GGUGUUUUAUAUGAACUGUTT against Efcab7, which z-score is on record?
A: inactive: 0.733

Q: Which z-score does the source give for GGAUGAGCUAGAGAUGACCTT against Kcnip1 here?
A: inactive: 0.0844

Q: With CCUCAGAACAAAUGAAAAUTT against Nlk as the sequence, how does the z-score read?
A: inactive: -0.62

Q: Which z-score does the source give for GGUGCUUAAUUCCUGUCCCTT against Ggn here?
A: inactive: -0.855

Q: With GGACGUACAAAACUUCCUCTT against Hnrnpf as the sequence, how does the z-score read?
A: inactive: 1.06

Q: Which z-score does the source give for GCUCAACUCAAAGCCUGUATT against Ifi27l2a here?
A: inactive: -0.987

Q: Which z-score does the source give for CCCAGAAGAGGUUACAUUUTT against Cd200r4 here?
A: inactive: 0.0312

Q: With CCACUGUCAGGCCAAAAACTT against Anks6 as the sequence, how does the z-score read?
A: inactive: -1.16

Q: For GGUAGUGGCUUGAACAGGUTT against Vmn1r201, which z-score is on record?
A: inactive: 0.115

Q: For GGUGGAAGCACUCAAUAAGTT against Pik3cb, which z-score is on record?
A: inactive: -1.24

Q: With GGAUACCUAGUUCUUAGUUTT against Mageb18 as the sequence, how does the z-score read?
A: inactive: 0.151

Q: With GUCAUGAGAUUGAAUACAATT against Olfr569 as the sequence, how does the z-score read?
A: inactive: -0.0298

Q: Which z-score does the source give for GGAACGAUGGAAAUUGUAUTT against Rap1gds1 here?
A: inactive: -1.41

Q: For CGGUCUGAUUAAACAAAUUTT against Dpysl4, which z-score is on record?
A: inactive: -0.371

Q: For GCCAGGAUUGGAUGAAAUATT against Ace2, which z-score is on record?
A: inactive: 1.69

Q: With CCUCUACUCAAAUUCUUGUTT against Ugt1a2 as the sequence, how does the z-score read?
A: inactive: -0.0765

Q: For GGGACACUAGAAGUAGGGATT against Pramel4, which z-score is on record?
A: inactive: 0.299

Q: With GGACUUCAUGGAGAGACGUTT against Ap5m1 as the sequence, how does the z-score read?
A: inactive: 0.308

Q: For CCAGAACCGUUUGAGGAGATT against Mrpl2, which z-score is on record?
A: inactive: -0.17

Q: With GCUCUUGCUACUUUUUUCUTT against Olfr823 as the sequence, how does the z-score read?
A: inactive: -0.108

Q: For GCAUAUAAGAGAAGUGCCUTT against Parl, which z-score is on record?
A: inactive: 0.298

Q: With CCAAGAGCCUCUUAAUUACTT against Syt9 as the sequence, how does the z-score read?
A: inactive: -0.667

Q: Which z-score does the source give for GCCGAAACAAUGUACAGAUTT against Rbpj here?
A: inactive: 1.03

Q: Which z-score does the source give for GUUUUCUUGAGACAGUUAATT against Pigyl here?
A: inactive: -0.88

Q: Which z-score does the source give for GGUGGUGUUUGUCAGCAAATT against Khk here?
A: inactive: 0.982

Q: Which z-score does the source give for GGACUUCAGUAUCAAUUGATT against Serpinb7 here?
A: inactive: 1.01

Q: With GGCUACGCCCACAAAAGCUTT against H1f6 as the sequence, how does the z-score read?
A: active: -2.26

Q: For GGAAUAGUAGCUCUUACUATT against Odf2l, which z-score is on record?
A: inactive: 1.56

Q: For GGUCGAAAGUCAACUCAGUTT against Tbc1d22b, which z-score is on record?
A: inactive: -0.698

Q: For GGUACUUUGGAGAUUGUAATT against Rdh14, which z-score is on record?
A: inactive: -0.462

Q: Which z-score does the source give for GGAUAUUUGUCAAUGGACGTT against Glrx2 here?
A: inactive: -1.2

Q: For GGAUUUACUGGGAAAGGUUTT against Vmn1r82, which z-score is on record?
A: inactive: 0.00481
